According to the supplement of paper PMC11006884:
The targets with a hit were mostly taken out for another list; the other results follow. The data scatter; read single values as rough. Only a part is listed here, and it is no random draw.

Amino acid sequences for entries named in this document (tags omitted). A change or cut given only in a name is not applied to a line headed by its entry.
UniProt Q8IX12: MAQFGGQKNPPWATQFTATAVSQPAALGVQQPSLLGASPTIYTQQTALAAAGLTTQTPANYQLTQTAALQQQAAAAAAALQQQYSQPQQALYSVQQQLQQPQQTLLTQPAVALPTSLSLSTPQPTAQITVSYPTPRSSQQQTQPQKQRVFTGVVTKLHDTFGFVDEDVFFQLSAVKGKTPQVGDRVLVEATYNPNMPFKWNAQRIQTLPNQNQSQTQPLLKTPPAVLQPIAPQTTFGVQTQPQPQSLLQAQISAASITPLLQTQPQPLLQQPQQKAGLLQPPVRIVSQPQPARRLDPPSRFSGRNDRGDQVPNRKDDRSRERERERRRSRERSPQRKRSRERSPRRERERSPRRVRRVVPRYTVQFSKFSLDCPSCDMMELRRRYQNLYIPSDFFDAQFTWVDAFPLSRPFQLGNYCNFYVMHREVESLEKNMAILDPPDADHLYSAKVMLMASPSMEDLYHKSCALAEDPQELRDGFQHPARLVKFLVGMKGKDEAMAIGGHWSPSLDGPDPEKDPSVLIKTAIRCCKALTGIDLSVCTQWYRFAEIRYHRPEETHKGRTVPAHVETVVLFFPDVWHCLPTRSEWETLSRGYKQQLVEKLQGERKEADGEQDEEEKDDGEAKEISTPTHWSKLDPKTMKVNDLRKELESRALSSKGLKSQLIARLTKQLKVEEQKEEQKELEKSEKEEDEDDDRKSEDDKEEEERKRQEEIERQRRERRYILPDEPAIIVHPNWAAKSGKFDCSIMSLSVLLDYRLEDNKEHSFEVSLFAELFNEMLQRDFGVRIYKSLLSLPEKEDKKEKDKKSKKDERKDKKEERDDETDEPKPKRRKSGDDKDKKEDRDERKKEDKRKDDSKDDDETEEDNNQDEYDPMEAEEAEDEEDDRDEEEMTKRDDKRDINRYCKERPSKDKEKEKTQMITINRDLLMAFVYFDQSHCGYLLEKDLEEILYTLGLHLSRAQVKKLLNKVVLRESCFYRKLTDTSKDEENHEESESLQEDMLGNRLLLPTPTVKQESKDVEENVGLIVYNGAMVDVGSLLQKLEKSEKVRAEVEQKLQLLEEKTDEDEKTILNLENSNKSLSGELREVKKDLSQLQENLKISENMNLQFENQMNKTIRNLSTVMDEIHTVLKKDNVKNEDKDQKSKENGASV
UniProt Q86VP6: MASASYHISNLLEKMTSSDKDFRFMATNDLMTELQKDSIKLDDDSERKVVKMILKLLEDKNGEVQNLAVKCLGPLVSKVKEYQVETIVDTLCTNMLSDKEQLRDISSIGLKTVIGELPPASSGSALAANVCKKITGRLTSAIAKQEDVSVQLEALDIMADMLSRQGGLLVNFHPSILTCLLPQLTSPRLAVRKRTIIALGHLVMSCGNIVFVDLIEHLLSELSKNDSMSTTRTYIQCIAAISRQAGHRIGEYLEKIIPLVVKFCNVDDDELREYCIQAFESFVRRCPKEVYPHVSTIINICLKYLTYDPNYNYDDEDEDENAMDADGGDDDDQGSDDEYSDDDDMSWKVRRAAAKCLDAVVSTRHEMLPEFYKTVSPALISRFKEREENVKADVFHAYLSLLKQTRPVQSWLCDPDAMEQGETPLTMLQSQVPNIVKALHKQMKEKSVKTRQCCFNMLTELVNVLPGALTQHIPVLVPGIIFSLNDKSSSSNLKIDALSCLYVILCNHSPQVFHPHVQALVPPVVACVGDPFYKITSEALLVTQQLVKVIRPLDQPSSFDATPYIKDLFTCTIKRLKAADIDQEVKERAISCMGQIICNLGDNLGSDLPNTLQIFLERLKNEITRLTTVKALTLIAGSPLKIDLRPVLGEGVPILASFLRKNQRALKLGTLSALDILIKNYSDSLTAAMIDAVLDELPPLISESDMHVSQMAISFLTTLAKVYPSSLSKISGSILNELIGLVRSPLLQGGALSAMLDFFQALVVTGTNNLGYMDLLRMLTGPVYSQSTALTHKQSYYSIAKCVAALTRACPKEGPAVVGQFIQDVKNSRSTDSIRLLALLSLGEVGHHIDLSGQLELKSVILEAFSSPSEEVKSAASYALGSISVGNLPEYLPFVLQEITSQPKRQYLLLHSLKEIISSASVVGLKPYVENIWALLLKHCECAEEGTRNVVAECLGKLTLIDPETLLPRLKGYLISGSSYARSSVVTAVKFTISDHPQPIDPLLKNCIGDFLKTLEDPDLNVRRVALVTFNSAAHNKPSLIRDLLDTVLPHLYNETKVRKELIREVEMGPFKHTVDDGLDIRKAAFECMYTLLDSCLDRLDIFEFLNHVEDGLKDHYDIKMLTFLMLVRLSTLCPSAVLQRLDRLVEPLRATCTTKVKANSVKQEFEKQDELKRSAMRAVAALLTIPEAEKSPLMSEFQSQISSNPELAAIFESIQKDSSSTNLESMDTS
UniProt Q8IYB8: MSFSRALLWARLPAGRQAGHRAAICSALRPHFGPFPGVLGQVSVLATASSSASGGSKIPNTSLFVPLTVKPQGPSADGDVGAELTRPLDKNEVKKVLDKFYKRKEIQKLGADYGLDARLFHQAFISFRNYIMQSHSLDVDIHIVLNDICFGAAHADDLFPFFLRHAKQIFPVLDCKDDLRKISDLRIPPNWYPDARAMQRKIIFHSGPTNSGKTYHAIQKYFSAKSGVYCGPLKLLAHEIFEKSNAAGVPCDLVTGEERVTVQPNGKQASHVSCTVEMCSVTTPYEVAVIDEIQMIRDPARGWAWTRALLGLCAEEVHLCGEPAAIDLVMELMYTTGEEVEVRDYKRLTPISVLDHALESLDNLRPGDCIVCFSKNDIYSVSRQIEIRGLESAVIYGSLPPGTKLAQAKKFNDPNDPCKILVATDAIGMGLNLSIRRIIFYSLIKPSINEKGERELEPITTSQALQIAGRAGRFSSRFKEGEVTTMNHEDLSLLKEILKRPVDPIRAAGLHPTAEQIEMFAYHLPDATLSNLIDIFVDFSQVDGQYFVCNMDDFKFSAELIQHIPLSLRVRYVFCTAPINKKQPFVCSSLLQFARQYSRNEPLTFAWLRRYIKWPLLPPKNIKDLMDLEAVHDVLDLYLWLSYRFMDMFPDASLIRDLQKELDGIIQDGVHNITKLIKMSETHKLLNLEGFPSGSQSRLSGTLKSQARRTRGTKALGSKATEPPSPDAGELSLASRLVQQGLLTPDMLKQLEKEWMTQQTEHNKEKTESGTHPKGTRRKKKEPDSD
UniProt Q86WB0: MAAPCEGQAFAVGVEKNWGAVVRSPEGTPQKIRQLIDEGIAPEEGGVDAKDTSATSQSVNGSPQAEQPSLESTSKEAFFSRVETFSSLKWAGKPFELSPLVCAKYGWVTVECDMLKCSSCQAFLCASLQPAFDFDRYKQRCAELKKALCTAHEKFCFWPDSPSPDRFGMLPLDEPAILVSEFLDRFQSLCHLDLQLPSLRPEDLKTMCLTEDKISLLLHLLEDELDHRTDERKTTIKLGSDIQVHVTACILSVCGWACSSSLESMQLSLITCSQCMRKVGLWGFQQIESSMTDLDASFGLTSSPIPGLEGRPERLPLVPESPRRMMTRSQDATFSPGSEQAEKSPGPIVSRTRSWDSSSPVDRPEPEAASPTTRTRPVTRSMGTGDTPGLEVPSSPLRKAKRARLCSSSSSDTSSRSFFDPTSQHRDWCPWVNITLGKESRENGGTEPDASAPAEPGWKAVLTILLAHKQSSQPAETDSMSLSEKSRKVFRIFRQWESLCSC
UniProt Q8IWV8: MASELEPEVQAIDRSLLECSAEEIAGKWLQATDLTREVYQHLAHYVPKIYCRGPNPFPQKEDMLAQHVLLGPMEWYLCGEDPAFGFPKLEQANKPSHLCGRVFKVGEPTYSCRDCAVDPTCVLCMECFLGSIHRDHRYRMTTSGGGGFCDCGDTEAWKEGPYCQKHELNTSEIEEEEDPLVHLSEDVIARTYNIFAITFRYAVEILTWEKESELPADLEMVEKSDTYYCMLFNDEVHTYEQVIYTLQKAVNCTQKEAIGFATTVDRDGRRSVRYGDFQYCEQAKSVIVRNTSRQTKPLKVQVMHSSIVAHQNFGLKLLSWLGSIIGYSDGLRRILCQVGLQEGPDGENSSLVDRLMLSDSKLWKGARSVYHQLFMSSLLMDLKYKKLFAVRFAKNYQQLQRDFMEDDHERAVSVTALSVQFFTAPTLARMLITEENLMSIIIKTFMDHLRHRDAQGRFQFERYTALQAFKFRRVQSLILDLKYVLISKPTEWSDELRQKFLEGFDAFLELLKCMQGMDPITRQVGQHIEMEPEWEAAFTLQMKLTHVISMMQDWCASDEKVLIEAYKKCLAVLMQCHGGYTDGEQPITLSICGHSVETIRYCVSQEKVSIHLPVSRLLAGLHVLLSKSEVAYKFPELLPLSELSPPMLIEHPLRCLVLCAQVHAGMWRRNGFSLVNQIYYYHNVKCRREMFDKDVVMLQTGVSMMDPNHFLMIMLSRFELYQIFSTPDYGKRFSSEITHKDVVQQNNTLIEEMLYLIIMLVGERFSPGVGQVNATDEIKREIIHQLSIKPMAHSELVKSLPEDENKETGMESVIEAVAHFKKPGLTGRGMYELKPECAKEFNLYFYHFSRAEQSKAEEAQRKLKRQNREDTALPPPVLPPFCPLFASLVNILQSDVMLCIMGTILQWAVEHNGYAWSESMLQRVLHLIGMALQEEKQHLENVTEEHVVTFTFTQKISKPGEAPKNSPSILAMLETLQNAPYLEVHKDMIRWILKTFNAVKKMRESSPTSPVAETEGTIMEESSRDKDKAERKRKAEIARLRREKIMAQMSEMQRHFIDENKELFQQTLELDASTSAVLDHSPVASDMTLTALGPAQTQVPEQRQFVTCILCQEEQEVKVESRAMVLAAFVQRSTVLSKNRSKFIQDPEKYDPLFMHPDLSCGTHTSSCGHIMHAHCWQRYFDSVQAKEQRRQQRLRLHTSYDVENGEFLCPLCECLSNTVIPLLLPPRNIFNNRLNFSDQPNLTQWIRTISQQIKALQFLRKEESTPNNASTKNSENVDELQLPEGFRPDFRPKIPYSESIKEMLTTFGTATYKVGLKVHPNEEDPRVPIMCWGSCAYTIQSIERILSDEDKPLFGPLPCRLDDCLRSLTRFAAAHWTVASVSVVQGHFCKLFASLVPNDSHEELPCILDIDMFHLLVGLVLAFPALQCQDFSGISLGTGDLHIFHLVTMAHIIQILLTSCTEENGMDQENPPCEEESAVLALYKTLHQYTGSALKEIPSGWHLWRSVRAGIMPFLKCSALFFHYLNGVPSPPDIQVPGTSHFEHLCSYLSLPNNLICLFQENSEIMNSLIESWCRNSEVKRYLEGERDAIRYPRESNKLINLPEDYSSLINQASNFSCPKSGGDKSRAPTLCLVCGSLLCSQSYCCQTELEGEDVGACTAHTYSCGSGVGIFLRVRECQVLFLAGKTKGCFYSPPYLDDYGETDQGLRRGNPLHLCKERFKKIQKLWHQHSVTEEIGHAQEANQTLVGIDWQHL
UniProt Q7Z2Z2: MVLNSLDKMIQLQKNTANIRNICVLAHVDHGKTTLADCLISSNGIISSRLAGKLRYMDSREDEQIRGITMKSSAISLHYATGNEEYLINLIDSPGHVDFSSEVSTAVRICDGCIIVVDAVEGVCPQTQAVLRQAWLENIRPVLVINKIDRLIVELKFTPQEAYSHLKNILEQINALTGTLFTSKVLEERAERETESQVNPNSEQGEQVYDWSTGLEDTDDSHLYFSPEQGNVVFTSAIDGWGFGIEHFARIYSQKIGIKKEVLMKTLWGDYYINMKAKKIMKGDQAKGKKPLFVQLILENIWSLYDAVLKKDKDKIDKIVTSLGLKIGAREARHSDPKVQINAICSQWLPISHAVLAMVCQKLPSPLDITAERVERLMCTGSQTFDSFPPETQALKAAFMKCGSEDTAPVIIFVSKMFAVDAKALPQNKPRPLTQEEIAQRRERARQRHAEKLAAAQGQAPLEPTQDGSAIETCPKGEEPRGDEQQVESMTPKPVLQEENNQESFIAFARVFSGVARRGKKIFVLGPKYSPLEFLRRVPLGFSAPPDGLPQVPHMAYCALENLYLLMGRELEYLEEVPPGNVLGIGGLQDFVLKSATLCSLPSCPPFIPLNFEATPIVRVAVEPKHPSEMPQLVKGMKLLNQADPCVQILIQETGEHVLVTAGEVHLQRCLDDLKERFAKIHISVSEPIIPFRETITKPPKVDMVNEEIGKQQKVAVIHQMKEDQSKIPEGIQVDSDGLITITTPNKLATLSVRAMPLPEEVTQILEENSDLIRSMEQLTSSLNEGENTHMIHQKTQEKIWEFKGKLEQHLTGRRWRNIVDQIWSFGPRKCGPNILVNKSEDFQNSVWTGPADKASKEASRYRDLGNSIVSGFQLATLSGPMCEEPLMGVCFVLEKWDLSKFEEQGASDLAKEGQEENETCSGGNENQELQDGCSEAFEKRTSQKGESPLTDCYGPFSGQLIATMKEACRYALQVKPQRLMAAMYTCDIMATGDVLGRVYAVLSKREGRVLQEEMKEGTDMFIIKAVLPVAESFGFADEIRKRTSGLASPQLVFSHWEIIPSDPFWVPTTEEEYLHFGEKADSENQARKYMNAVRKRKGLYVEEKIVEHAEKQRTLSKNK

Compound: COC(=O)/C=C/c1ccccc1 [methyl cinnamate]
Assay: log2 ratio of iodoacetamide-alkyne labeling of the cysteine site, DMSO over compound (competition); higher = stronger covalent engagement of the cysteine by the compound, active = 1 or more
Settings: 500 µM; treatment time 1 h; system: HEK293T cell lysate
Outline: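 HEK293T lysate (2 mg/mL) was treated with DMSO or electrophile (500 µM, 1 h, ambient temperature), then iodoacetamide alkyne (1 h), clicked to sCIP-TMT reagents, pooled, trypsin-digested overnight at 37 °C, streptavidin-enriched and acid-eluted. Peptides were run on Orbitrap Eclipse LC-MS/MS with FAIMS and quantified in FragPipe. The log2 competition ratio per cysteine is mean control-channel over mean compound-channel reporter intensity. Duplicate channels and three replicates were used, and cysteines quantified in only one replicate were excluded.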

log2 ratio of iodoacetamide-alkyne labeling, inactive:
UniProt Q86YR5_C515 0.522
CCAR1 C465 (UniProt Q8IX12) 0.261
ZC3HAV1 C150 (UniProt Q7Z2W4) 0.198
CCDC50 C85 (UniProt Q8IVM0) 0.27
CAND1 C356 (UniProt Q86VP6) 0.18
KTN1 C303 (UniProt Q86UP2) 0.0565
UniProt Q86UD0_C195 0.264
ZC3HAV1 C645 (UniProt Q7Z2W4) 0.316
SETD3 C36 (UniProt Q86TU7) 0.224
THOC6 C314 (UniProt Q86W42) -0.0721
SUPV3L1 C175 (UniProt Q8IYB8) 0.305
GATAD2A C420 (UniProt Q86YP4) 0.0595
PHF6 C242 (UniProt Q8IWS0) -0.202
ZC3HC1 C5 (UniProt Q86WB0) 0.0444
CAND1 C1153 (UniProt Q86VP6) 0.304
RSRC2 C382 (UniProt Q7L4I2) 0.331
ZC3HC1 C500 (UniProt Q86WB0) 0.0565
WDFY1 C290 (UniProt Q8IWB7) 0.188
SND1 C96 (UniProt Q7KZF4) 0.0313
ZC3HC1 C502 (UniProt Q86WB0) 0.0565
UBR2 C1619 (UniProt Q8IWV8) -0.042
UniProt Q8IX01_C183 0.352
NUP54 C180 (UniProt Q7Z3B4) 0.12
CAND1 C1007 (UniProt Q86VP6) 0.243
ANKLE2 C367 (UniProt Q86XL3) 0.0646
UniProt Q71F23_C38 0.0968
ANKLE2 C350 (UniProt Q86XL3) -0.0885
EMSY C1211 (UniProt Q7Z589) 0.258
ERMP1 C43 (UniProt Q7Z2K6) 0.203
UniProt Q7Z2Z2_C670 -0.113
DHX37 C766 (UniProt Q8IY37) 0.114
UniProt Q7Z5K2_C675 0.157
UniProt Q7RTV0_C75 -0.133
CAND1 C275 (UniProt Q86VP6) 0.21
ANKHD1 C777 (UniProt Q8IWZ3) -0.142
METTL3 C500 (UniProt Q86U44) 0.162
UniProt Q7LBC6_C509 0.379

Reprinted at random: 2 records from the list, in no set order.
log2 ratio of iodoacetamide-alkyne labeling, inactive:
UniProt Q71F23_C38 0.0968
GATAD2A C420 (UniProt Q86YP4) 0.0595
